From US20120219942, “Methods Employing McrA to Detect 5-Methyl Cytosine” (Brookhaven Science Associates, LLC, published 2012)

Target: T1, McrA (rMcrA-S, C-terminal StrepII) (Escherichia coli) (UniProt P24200)
T1 sequence (looked up, limits assumed): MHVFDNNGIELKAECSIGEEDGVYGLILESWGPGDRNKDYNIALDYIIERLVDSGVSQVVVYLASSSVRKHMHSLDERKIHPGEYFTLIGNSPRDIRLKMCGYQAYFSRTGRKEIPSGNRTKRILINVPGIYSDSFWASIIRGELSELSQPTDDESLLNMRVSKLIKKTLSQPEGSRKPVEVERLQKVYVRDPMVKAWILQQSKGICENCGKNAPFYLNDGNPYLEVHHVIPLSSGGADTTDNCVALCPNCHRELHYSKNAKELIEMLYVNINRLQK
Test: EMSA
Settings: purified recombinant protein, protein details: C-terminal StrepII SAWSHPQFEK

“GCCTTCAGCGCCGGCGGATCCAGT (double strand) [m5C/I cassette]”: binds (5mC at position 12 of top strand only, inosine (n) in bottom strand opposite m5C [top 12 5mC, bottom 13 inosine (parent base G)], I opposite m5C, letters built from the parent sequence and the stated change, variant of hemimethylated Cm5CGG cassette (m5C/G)).

“GCCTTCAGCGCCGGCGGATCCAGT (double strand) [m5CGG three-fourth HpaII cassette]”: binds more weakly (5mC at position 15 of top strand and 9 of bottom strand, bound (Yes in table), evident at higher protein to DNA ratios).

“GCCTTCAGCGCCGGCGGATCCAGT (double strand) [unmethylated cassette]”: no binding (unmethylated control).

A negative result means that nothing was seen under these conditions. Tags and fusion partners may be left off the protein sequences shown. The comparison behind a weaker result is the experiment's own reference, which may not be listed here. For at least one entry, the source does not settle the construct or the ends of the probe.
